{
  "source": "paper PMC10337854",
  "binders": {"B1": {"name": "ubiquitin-specific peptidase USP15 (enzyme, UniProt Q9Y4E8 1-981)", "chain": "MAEGGAADLDTQRSDIATLLKTSLRKGDTWYLVDSRWFKQWKKYVGFDSWDKYQMGDQNVYPGPIDNSGLLKDGDAQSLKEHLIDELDYILLPTEGWNKLVSWYTLMEGQEPIARKVVEQGMFVKHCKVEVYLTELKLCENGNMNNVVTRRFSKADTIDTIEKEIRKIFSIPDEKETRLWNKYMSNTFEPLNKPDSTIQDAGLYQGQVLVIEQKNEDGTWPRGPSTPKSPGASNFSTLPKISPSSLSNNYNNMNNRNVKNSNYCLPSYTAYKNYDYSEPGRNNEQPGLCGLSNLGNTCFMNSAIQCLSNTPPLTEYFLNDKYQEELNFDNPLGMRGEIAKSYAELIKQMWSGKFSYVTPRAFKTQVGRFAPQFSGYQQQDCQELLAFLLDGLHEDLNRIRKKPYIQLKDADGRPDKVVAEEAWENHLKRNDSIIVDIFHGLFKSTLVCPECAKISVTFDPFCYLTLPLPMKKERTLEVYLVRMDPLTKPMQYKVVVPKIGNILDLCTALSALSGIPADKMIVTDIYNHRFHRIFAMDENLSSIMERDDIYVFEININRTEDTEHVIIPVCLREKFRHSSYTHHTGSSLFGQPFLMAVPRNNTEDKLYNLLLLRMCRYVKISTETEETEGSLHCCKDQNINGNGPNGIHEEGSPSEMETDEPDDESSQDQELPSENENSQSEDSVGGDNDSENGLCTEDTCKGQLTGHKKRLFTFQFNNLGNTDINYIKDDTRHIRFDDRQLRLDERSFLALDWDPDLKKRYFDENAAEDFEKHESVEYKPPKKPFVKLKDCIELFTTKEKLGAEDPWYCPNCKEHQQATKKLDLWSLPPVLVVHLKRFSYSRYMRDKLDTLVDFPINDLDMSEFLINPNAGPCRYNLIAVSNHYGGMGGGHYTAFAKNKDDGKWYYFDDSSVSTASEDQIVSKAAYVLFYQRQDTFSGTGFFPLDRETKGASAATGIPLESDEDSNDNDNDIENENCMHTN"}, "B2": {"name": "USP4 (enzyme, UniProt Q13107 1-963)", "chain": "MAEGGGCRERPDAETQKSELGPLMRTTLQRGAQWYLIDSRWFKQWKKYVGFDSWDMYNVGEHNLFPGPIDNSGLFSDPESQTLKEHLIDELDYVLVPTEAWNKLLNWYGCVEGQQPIVRKVVEHGLFVKHCKVEVYLLELKLCENSDPTNVLSCHFSKADTIATIEKEMRKLFNIPAERETRLWNKYMSNTYEQLSKLDNTVQDAGLYQGQVLVIEPQNEDGTWPRQTLQSKSSTAPSRNFTTSPKSSASPYSSVSASLIANGDSTSTCGMHSSGVSRGGSGFSASYNCQEPPSSHIQPGLCGLGNLGNTCFMNSALQCLSNTAPLTDYFLKDEYEAEINRDNPLGMKGEIAEAYAELIKQMWSGRDAHVAPRMFKTQVGRFAPQFSGYQQQDSQELLAFLLDGLHEDLNRVKKKPYLELKDANGRPDAVVAKEAWENHRLRNDSVIVDTFHGLFKSTLVCPECAKVSVTFDPFCYLTLPLPLKKDRVMEVFLVPADPHCRPTQYRVTVPLMGAVSDLCEALSRLSGIAAENMVVADVYNHRFHKIFQMDEGLNHIMPRDDIFVYEVCSTSVDGSECVTLPVYFRERKSRPSSTSSASALYGQPLLLSVPKHKLTLESLYQAVCDRISRYVKQPLPDEFGSSPLEPGACNGSRNSCEGEDEEEMEHQEEGKEQLSETEGSGEDEPGNDPSETTQKKIKGQPCPKRLFTFSLVNSYGTADINSLAADGKLLKLNSRSTLAMDWDSETRRLYYDEQESEAYEKHVSMLQPQKKKKTTVALRDCIELFTTMETLGEHDPWYCPNCKKHQQATKKFDLWSLPKILVVHLKRFSYNRYWRDKLDTVVEFPIRGLNMSEFVCNLSARPYVYDLIAVSNHYGAMGVGHYTAYAKNKLNGKWYYFDDSNVSLASEDQIVTKAAYVLFYQRRDDEFYKTPSLSSSGSSDGGTRPSSSQQGFGDDEACSMDTN"}},
  "target": "T1, Squamous cell carcinoma antigen recognized by T cells 3 (SART3) (human (endogenous in HCT116)) (UniProt Q15020)",
  "T1 sequence": "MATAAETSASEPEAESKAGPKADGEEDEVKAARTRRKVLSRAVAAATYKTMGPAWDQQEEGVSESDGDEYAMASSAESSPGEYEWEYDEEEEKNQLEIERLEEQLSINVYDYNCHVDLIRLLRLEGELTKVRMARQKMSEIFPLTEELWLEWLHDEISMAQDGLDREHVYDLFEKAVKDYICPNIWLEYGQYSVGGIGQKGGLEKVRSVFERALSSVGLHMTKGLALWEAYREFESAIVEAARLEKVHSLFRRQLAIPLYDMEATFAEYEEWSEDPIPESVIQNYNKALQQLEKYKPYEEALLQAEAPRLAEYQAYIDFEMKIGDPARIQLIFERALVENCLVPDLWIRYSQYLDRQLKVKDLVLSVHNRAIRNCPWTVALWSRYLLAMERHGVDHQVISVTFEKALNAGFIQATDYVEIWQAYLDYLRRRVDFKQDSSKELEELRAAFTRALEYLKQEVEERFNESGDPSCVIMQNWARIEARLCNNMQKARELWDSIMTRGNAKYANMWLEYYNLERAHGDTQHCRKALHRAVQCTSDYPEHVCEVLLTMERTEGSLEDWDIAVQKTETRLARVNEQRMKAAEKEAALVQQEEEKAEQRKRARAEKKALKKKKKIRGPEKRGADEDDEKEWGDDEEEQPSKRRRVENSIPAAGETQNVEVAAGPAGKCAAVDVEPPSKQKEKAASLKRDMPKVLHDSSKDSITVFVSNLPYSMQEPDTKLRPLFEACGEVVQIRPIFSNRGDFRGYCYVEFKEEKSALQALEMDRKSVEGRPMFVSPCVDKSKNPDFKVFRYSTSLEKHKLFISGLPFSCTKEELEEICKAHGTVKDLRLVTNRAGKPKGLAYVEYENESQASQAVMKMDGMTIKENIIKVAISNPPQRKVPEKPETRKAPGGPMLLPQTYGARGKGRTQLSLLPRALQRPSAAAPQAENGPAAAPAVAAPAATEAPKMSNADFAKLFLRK",
  "assay": "affinity purification with mass spectrometry; SART3 immunoprecipitated from HCT116 cell lysates; coprecipitated proteins analyzed by LC-MS/MS",
  "note": "These are yes or no findings as the source states them, for the method shown. Binding seen in cells or lysates may run through a third protein. These calls come from enrichment with a bait or labelling near it, and not all partners need be listed.",
  "data": [
    {"binder": "B1", "values": [
      {"measurement": "binding", "result": "binds"}
    ]},
    {"binder": "B2", "values": [
      {"measurement": "binding", "result": "binds"}
    ]}
  ]
}
